According to the supplement of paper PMC10849652:
Some of the results follow.

Chains of the proteins cited; added tags and fusions are not shown. Lines headed by an entry give the natural chain unless they say otherwise; changes in a name come on top.
UniProt Q9BW85: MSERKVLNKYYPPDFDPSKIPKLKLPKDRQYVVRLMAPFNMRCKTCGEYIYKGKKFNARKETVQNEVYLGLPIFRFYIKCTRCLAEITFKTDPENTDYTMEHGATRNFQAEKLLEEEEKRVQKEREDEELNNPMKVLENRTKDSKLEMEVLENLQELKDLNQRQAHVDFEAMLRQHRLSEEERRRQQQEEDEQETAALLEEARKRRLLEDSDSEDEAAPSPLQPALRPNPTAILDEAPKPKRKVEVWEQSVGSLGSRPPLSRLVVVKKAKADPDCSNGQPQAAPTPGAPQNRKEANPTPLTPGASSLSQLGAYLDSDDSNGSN
UniProt Q8NBI6: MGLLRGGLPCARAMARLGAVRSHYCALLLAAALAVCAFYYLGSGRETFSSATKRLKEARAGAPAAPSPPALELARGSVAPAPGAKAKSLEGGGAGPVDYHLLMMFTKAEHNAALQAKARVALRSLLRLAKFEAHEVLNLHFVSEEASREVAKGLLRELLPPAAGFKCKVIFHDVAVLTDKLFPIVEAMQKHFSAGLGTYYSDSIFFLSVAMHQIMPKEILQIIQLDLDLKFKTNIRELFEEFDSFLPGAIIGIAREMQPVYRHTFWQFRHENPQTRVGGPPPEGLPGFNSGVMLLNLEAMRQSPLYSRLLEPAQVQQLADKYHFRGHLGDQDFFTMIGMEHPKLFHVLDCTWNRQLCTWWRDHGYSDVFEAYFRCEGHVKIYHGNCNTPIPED
UniProt P62699: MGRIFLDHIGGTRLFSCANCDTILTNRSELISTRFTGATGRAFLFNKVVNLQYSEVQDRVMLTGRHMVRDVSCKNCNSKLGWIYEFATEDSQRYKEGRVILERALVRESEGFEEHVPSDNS
UniProt Q7Z2W4: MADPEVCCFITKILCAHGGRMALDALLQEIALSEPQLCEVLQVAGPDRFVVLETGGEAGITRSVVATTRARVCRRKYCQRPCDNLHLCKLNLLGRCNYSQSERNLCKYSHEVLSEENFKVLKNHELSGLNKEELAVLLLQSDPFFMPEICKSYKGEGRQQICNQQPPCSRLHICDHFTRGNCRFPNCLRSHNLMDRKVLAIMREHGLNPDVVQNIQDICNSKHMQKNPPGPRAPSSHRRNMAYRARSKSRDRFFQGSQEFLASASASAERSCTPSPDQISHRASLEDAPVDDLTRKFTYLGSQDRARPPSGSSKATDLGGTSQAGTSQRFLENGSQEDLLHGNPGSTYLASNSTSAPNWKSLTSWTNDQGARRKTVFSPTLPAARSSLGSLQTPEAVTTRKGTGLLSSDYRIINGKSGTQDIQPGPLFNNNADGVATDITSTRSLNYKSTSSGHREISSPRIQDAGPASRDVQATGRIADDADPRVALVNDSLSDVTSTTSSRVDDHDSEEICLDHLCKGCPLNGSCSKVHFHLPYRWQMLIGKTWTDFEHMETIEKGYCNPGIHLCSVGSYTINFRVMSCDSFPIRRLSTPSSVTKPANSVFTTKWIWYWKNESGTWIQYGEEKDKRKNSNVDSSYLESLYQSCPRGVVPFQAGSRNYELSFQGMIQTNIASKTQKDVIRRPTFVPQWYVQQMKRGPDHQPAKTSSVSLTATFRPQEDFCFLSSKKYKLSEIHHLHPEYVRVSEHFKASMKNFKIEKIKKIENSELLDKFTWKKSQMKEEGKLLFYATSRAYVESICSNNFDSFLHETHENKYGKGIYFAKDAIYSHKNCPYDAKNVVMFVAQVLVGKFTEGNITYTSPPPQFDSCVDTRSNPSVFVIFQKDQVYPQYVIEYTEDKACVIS
UniProt O96006: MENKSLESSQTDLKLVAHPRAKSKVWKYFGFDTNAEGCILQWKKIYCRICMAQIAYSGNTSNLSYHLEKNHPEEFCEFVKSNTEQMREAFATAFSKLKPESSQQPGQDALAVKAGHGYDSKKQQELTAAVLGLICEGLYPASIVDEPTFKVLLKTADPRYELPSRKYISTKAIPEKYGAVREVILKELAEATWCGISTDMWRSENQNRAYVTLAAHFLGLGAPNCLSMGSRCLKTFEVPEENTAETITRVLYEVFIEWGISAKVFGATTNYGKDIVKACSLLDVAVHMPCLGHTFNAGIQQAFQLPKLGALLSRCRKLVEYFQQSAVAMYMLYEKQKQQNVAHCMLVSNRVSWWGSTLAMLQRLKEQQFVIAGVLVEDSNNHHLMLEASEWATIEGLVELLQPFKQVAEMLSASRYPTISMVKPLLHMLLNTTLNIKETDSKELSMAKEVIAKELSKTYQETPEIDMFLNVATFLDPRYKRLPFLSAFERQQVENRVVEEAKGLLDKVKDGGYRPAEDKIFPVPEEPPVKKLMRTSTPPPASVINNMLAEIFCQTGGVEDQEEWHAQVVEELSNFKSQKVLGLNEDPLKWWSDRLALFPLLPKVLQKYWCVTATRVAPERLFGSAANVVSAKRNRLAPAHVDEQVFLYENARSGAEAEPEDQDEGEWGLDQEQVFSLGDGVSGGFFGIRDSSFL
UniProt P25490, whole entry, looked up: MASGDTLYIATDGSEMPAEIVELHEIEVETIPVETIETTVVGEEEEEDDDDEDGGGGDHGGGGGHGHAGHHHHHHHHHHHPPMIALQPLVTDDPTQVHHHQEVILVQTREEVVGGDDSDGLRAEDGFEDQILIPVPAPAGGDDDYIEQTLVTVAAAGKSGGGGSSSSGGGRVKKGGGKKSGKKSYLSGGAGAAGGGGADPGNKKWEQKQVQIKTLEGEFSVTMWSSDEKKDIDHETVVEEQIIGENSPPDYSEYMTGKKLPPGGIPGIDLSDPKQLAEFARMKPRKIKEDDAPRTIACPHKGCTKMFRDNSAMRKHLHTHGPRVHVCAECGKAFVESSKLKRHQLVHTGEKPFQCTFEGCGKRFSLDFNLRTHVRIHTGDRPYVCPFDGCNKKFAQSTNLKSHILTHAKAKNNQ
UniProt Q9Y2Z4: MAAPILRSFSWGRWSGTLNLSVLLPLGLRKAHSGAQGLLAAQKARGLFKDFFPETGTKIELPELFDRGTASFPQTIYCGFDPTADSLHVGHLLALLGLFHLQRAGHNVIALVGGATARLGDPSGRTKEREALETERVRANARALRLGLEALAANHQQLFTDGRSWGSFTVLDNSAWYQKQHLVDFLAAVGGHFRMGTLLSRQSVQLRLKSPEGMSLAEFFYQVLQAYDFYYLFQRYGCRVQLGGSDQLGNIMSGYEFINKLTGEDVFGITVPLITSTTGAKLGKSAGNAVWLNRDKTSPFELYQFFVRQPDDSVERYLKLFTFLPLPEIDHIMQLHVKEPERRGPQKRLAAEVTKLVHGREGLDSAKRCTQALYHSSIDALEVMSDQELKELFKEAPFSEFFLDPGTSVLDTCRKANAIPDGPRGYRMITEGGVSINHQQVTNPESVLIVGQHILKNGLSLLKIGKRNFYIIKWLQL
UniProt Q9NUD5: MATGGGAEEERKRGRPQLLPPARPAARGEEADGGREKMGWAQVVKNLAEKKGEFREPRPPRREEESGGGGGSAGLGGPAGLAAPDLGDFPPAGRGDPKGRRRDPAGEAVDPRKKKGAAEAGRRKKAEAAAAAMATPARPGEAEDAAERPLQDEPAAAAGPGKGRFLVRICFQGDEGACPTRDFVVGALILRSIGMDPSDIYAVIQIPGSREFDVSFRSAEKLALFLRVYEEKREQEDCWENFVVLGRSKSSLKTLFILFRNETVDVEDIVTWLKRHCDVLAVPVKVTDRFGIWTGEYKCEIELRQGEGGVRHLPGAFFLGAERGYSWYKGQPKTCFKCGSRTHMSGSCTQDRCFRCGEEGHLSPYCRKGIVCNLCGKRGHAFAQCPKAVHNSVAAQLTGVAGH
UniProt Q8WV99: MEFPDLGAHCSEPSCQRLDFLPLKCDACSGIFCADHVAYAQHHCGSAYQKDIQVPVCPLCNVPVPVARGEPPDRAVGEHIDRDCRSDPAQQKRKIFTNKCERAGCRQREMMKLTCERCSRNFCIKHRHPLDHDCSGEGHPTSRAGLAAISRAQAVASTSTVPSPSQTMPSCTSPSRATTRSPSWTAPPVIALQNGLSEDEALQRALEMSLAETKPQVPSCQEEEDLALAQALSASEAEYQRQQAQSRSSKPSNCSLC
UniProt Q86WB0: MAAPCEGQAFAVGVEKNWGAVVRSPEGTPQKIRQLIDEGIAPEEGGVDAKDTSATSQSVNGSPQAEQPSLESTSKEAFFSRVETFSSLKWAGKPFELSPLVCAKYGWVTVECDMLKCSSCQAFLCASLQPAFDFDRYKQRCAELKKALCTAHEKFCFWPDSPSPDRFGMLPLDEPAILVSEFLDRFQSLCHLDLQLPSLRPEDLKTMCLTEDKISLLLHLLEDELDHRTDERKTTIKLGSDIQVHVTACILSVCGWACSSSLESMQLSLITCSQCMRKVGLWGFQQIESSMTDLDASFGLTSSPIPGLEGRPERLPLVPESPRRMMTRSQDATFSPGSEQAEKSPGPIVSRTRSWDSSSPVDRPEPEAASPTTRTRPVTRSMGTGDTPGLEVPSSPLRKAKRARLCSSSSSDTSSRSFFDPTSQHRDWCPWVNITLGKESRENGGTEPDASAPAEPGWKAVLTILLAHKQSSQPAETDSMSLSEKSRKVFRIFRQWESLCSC
UniProt Q96DT7: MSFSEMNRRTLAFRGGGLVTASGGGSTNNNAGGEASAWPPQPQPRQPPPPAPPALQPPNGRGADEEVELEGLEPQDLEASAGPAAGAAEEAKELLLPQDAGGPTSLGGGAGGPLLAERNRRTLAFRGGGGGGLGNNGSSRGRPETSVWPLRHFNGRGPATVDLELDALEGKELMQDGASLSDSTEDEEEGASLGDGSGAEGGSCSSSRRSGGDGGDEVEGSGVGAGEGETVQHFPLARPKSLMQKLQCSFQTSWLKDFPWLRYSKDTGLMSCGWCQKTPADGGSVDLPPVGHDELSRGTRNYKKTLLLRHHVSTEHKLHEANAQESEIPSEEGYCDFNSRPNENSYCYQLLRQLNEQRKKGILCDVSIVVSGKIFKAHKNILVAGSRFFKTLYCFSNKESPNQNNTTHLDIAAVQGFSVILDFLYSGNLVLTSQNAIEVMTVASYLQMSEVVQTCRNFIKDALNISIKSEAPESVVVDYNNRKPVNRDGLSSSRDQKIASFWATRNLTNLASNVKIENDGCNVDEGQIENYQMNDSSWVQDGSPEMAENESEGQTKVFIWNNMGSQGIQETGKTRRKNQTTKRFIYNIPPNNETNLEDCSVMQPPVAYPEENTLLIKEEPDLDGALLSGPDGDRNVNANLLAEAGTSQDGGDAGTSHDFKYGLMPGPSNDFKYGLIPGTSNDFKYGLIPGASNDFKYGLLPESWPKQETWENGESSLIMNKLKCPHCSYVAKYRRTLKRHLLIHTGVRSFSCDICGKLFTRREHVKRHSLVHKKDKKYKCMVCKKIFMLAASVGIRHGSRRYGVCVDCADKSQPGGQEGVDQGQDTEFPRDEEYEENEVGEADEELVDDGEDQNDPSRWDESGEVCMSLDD
UniProt Q969M3: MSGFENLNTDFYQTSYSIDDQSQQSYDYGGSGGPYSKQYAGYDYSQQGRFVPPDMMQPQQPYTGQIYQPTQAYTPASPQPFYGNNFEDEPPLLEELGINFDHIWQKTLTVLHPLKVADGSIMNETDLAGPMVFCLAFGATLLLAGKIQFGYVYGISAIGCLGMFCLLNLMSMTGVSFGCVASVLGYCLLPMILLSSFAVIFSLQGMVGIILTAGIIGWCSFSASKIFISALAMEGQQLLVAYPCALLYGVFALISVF
UniProt P67809, whole entry, looked up: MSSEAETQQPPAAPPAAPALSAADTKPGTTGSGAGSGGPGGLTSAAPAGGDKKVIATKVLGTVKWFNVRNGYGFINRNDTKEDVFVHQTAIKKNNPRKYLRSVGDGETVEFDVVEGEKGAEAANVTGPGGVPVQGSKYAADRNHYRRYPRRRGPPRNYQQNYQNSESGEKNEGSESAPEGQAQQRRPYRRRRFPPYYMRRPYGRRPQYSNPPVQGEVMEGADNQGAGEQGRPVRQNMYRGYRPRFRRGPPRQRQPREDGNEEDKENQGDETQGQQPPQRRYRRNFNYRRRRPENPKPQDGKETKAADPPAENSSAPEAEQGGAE
UniProt Q8N5P1: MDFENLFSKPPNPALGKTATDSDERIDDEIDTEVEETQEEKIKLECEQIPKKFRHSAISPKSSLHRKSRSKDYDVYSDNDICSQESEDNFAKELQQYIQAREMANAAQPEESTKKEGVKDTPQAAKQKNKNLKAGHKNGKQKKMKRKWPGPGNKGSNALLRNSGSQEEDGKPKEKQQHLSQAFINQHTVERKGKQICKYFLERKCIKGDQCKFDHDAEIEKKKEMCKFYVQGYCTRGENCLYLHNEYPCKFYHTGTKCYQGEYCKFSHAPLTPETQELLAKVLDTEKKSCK
UniProt Q8N567: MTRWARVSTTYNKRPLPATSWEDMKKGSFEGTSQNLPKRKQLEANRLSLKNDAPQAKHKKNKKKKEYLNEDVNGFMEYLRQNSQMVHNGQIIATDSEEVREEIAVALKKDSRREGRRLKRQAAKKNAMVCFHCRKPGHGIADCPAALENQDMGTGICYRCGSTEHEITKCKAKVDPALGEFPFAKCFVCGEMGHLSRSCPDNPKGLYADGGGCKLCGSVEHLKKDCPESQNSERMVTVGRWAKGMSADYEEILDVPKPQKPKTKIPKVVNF

What was measured:
Assay in all cases: log2 fold change, soluble protein after heating vs DMSO (PISA); higher = thermal stabilisation; K562 lysate, 10 uM; active = over 0.2 and 3.5 SD of the protein, either way, in both replicates (recomputed)
erlotinib = compound: C#Cc1cccc(Nc2ncnc3cc(OCCOC)c(OCCOC)cc23)c1 [erlotinib]
How it was run: (§1)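 Quantification was by TMTpro 16plex LC-MS/MS with equalised channel sums, applied to the supernatant after 21,000xg for 90 min. Samples were crude K562 extract at 1 mg/mL protein in PBS pH 7.4 with 1 mM MgCl2, treated with 10 μM compound for 30 min, heated for 3 min across 48°C-58°C, pooled and brought to 0.5% NP-40 at 4°C. Values are log-two fold changes in thermal stability relative to solvent controls, from duplicates.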

[1] = compound: C/C(=N\NC(=O)C1=CC(=CC=C1)S(=O)(=O)N2CCOCC2)/C3=C(C=CC(=C3)Cl)O
How it was run: as §1

[2] = compound: C1=CC(=CC=C1C2=NC3=C(N2)C=C(C=C3)C(=O)N)OC4=CC=C(C=C4)Cl
How it was run: as §1

[3] = compound: C1=CC2=C(C=CC(=C2)/C=C\3/C(=O)NC(=NCC4=CC=CS4)S3)N=C1
How it was run: as §1

[4] = compound: C1=CC2=NC=CN=C2C=C1/C=C/3\C(=O)NC(=O)S3
How it was run: as §1

[5] = compound: C1=CC=C(C=C1)C2=NC(=C(N2)C3=CC=NC=C3)C4=CC(=C(C=C4)Cl)O
How it was run: as §1

[6] = compound: C1=CC=C2C(=C1)C3=NNC4=CC=CC(=C43)C2=O
How it was run: as §1

[7] = compound: C1CCN(C1)C(=O)NC2=CC=CC(=C2)NC3=NC=C(C(=N3)NCCC4=CN=CN4)Br
How it was run: as §1

[8] = compound: C1CN(CCC1(CC2=CC=C(C=C2)Cl)N)C3=NC=NC4=C3C=CN4
How it was run: as §1

IRAK-1-4 Inhibitor I = compound: C1COCCN1CCN2C3=CC=CC=C3N=C2NC(=O)C4=CC(=CC=C4)[N+](=O)[O-] [IRAK-1-4 Inhibitor I]
How it was run: as §1

Measured: log2 fold change

ZC3H11A (UniProt O75152)
inactive: erlotinib 0.021 | [1] -0.048 | [2] -0.027 | [3] 0.004 | [4] -0.048 | [5] 0.029 | [6] -0.02 | [7] -0.011 | [8] -0.003 | IRAK-1-4 Inhibitor I -0.012

XYLB (UniProt O75191)
inactive: erlotinib -0.024 | [1] 0.002 | [2] -0.036 | [3] -0.009 | [4] 0.092 | [5] -0.049 | [6] -0.147 | [7] -0.046 | [8] 0.061 | IRAK-1-4 Inhibitor I 0.035

ZBTB7A (UniProt O95365)
inactive: erlotinib 0.003 | [1] 0.102 | [2] -0.044 | [3] -0.093 | [4] 0.056 | [5] 0 | [6] 0.084 | [7] -0.133 | [8] -0.011 | IRAK-1-4 Inhibitor I -0.018

YJU2 (UniProt Q9BW85)
inactive: erlotinib 0.004 | [1] 0 | [2] 0.056 | [3] 0.021 | [4] -0.039 | [5] 0.037 | [6] -0.029 | [7] -0.016 | [8] 0.023 | IRAK-1-4 Inhibitor I -0.038

XXYLT1 (UniProt Q8NBI6)
inactive: erlotinib -0.001 | [1] 0.047 | [2] -0.022 | [3] 0.118 | [4] 0.019 | [5] -0.032 | [6] -0.039 | [7] 0.006 | [8] 0.021 | IRAK-1-4 Inhibitor I 0.005

YPEL5 (UniProt P62699)
inactive: erlotinib 0.007 | [1] 0.09 | [2] -0.049 | [3] 0.002 | [4] -0.019 | [5] -0.048 | [6] 0.072 | [7] -0.048 | [8] 0.047 | IRAK-1-4 Inhibitor I -0.043

XPO6 (UniProt Q96QU8)
inactive: erlotinib 0.091 | [1] -0.024 | [2] -0.028 | [3] 0.031 | [4] -0.012 | [5] -0.003 | [6] -0.072 | [7] -0.007 | [8] -0.028 | IRAK-1-4 Inhibitor I 0.003

YTHDC2 (UniProt Q9H6S0)
inactive: erlotinib -0.008 | [1] 0.065 | [2] 0.012 | [3] 0.027 | [4] 0.02 | [5] -0.001 | [6] 0.074 | [7] -0.019 | [8] 0.029 | IRAK-1-4 Inhibitor I 0.002

ZC3HAV1 (UniProt Q7Z2W4)
inactive: erlotinib 0.026 | [1] -0.041 | [2] 0.023 | [3] 0.018 | [4] -0.016 | [5] -0.001 | [6] -0.015 | [7] -0.024 | [8] -0.002 | IRAK-1-4 Inhibitor I 0.02

ZBED1 (UniProt O96006)
inactive: erlotinib 0 | [1] 0.037 | [2] -0.027 | [3] -0.035 | [4] -0.061 | [5] 0.02 | [6] 0.011 | [7] -0.084 | [8] 0.075 | IRAK-1-4 Inhibitor I -0.01

Random excerpt: two records from the list
YPEL5 (UniProt P62699)
inactive: erlotinib 0.007 | [1] 0.09 | [2] -0.049 | [3] 0.002 | [4] -0.019 | [5] -0.048 | [6] 0.072 | [7] -0.048 | [8] 0.047 | IRAK-1-4 Inhibitor I -0.043

ZC3HAV1 (UniProt Q7Z2W4)
inactive: erlotinib 0.026 | [1] -0.041 | [2] 0.023 | [3] 0.018 | [4] -0.016 | [5] -0.001 | [6] -0.015 | [7] -0.024 | [8] -0.002 | IRAK-1-4 Inhibitor I 0.02

Next part:

YY1 (UniProt P25490)
inactive: erlotinib -0.03 | [1] -0.03 | [2] 0 | [3] 0.002 | [4] 0.019 | [5] 0.009 | [6] 0.032 | [7] 0.045 | [8] -0.047 | IRAK-1-4 Inhibitor I -0.021

YARS2 (UniProt Q9Y2Z4)
inactive: erlotinib 0.071 | [1] 0.015 | [2] 0.009 | [3] 0.057 | [4] 0.006 | [5] -0.062 | [6] -0.072 | [7] 0.029 | [8] -0.003 | IRAK-1-4 Inhibitor I 0.019

ZCCHC3 (UniProt Q9NUD5)
inactive: erlotinib -0.029 | [1] 0.017 | [2] -0.042 | [3] -0.003 | [4] 0.02 | [5] -0.001 | [6] -0.006 | [7] 0.017 | [8] 0.021 | IRAK-1-4 Inhibitor I -0.004

YARS (UniProt P54577)
inactive: erlotinib 0.012 | [1] 0.025 | [2] -0.014 | [3] -0.007 | [4] 0.001 | [5] 0.001 | [6] -0.014 | [7] -0.001 | [8] -0.002 | IRAK-1-4 Inhibitor I -0.001

YWHAQ (UniProt P27348)
inactive: erlotinib 0.026 | [1] 0.046 | [2] 0.016 | [3] 0.012 | [4] 0.017 | [5] 0.014 | [6] 0.021 | [7] -0.006 | [8] 0.022 | IRAK-1-4 Inhibitor I 0.013

ZFAND2B (UniProt Q8WV99)
inactive: erlotinib 0.013 | [1] 0.125 | [2] -0.028 | [3] -0.08 | [4] 0.008 | [5] 0.043 | [6] 0.059 | [7] -0.053 | [8] 0.07 | IRAK-1-4 Inhibitor I -0.045

ZGPAT (UniProt Q8N5A5)
inactive: erlotinib -0.03 | [1] -1.96 | [2] -0.04 | [3] -0.135 | [4] 0.021 | [5] 0.088 | [6] 0.124 | [7] 0.006 | [8] -0.107 | IRAK-1-4 Inhibitor I 0.002

YWHAH (UniProt Q04917)
inactive: erlotinib -0.02 | [1] 0.039 | [2] 0 | [3] 0.001 | [4] -0.041 | [5] 0.006 | [6] 0.006 | [7] 0.006 | [8] -0.003 | IRAK-1-4 Inhibitor I -0.016

ZC3HC1 (UniProt Q86WB0)
inactive: erlotinib 0.011 | [1] -0.123 | [2] -0.006 | [3] 0.005 | [4] -0.009 | [5] 0.007 | [6] 0.009 | [7] 0.011 | [8] 0.018 | IRAK-1-4 Inhibitor I -0.003

ZFPL1 (UniProt O95159)
inactive: erlotinib -0.004 | [1] -0.017 | [2] -0.025 | [3] 0.161 | [4] -0.086 | [5] -0.013 | [6] -0.048 | [7] -0.028 | [8] 0.02 | IRAK-1-4 Inhibitor I 0.085

ZBTB10 (UniProt Q96DT7)
inactive: erlotinib 0.034 | [1] -0.003 | [2] -0.013 | [3] 0.061 | [4] -0.02 | [5] 0.021 | [6] -0.08 | [7] -0.115 | [8] -0.032 | IRAK-1-4 Inhibitor I -0.011

YWHAZ (UniProt P63104)
inactive: erlotinib -0.025 | [1] -0.028 | [2] 0.002 | [3] -0.014 | [4] -0.013 | [5] -0.014 | [6] 0.039 | [7] 0.011 | [8] -0.03 | IRAK-1-4 Inhibitor I -0.025

YIPF5 isoform 3 (UniProt Q969M3)
inactive: erlotinib -0.047 | [1] 0.089 | [2] -0.036 | [3] -0.067 | [4] -0.019 | [5] -0.065 | [6] -0.033 | [7] 0.004 | [8] -0.016 | IRAK-1-4 Inhibitor I 0.032

YBX1 (UniProt P67809)
inactive: erlotinib 0.011 | [1] -0.065 | [2] -0.009 | [3] 0 | [4] -0.048 | [5] 0.018 | [6] 0.01 | [7] 0.014 | [8] -0.011 | IRAK-1-4 Inhibitor I 0.021

ZC3H8 (UniProt Q8N5P1)
inactive: erlotinib -0.003 | [1] 0.024 | [2] -0.02 | [3] -0.031 | [4] -0.056 | [5] 0.012 | [6] 0.009 | [7] 0.03 | [8] -0.002 | IRAK-1-4 Inhibitor I -0.013

YEATS2 (UniProt Q9ULM3)
inactive: erlotinib 0.064 | [1] 0.028 | [2] 0.056 | [3] 0.076 | [4] -0.061 | [5] 0.003 | [6] -0.162 | [7] -0.133 | [8] 0.056 | IRAK-1-4 Inhibitor I 0.014

ZC3H7A (UniProt Q8IWR0)
inactive: erlotinib 0.077 | [1] -0.011 | [2] -0.054 | [3] 0.039 | [4] -0.012 | [5] -0.042 | [6] -0.089 | [7] 0.039 | [8] 0.021 | IRAK-1-4 Inhibitor I 0.015

XRCC1 (UniProt P18887)
inactive: erlotinib -0.012 | [1] 0.029 | [2] -0.063 | [3] 0.023 | [4] -0.026 | [5] 0 | [6] -0.01 | [7] -0.028 | [8] -0.014 | IRAK-1-4 Inhibitor I -0.006

ZCCHC9 (UniProt Q8N567)
inactive: erlotinib -0.032 | [1] 0.021 | [2] 0.115 | [3] 0.051 | [4] -0.033 | [5] 0.156 | [6] -0.047 | [7] 0.007 | [8] -0.002 | IRAK-1-4 Inhibitor I 0.056

YAE1 (UniProt Q9NRH1)
inactive: erlotinib -0.041 | [1] 0.069 | [2] 0.123 | [3] 0.009 | [4] 0.025 | [5] -0.012 | [6] 0.038 | [7] -0.055 | [8] 0.034 | IRAK-1-4 Inhibitor I 0.147
